Values joined by “and” are separate entries in the source; they are usually repeats but may differ in a detail not shown here. Equal values may be shown once. The whole screen tested about 320,000 compounds, of which about 22,000 (6.9%) were called active. Inconclusive results, whose numbers are uncertain, are shown with a selection of clear calls. Calls follow the shape of the dose curve; as a rule, active = well fitted inhibition curve with a large enough effect; inconclusive = small, poorly fitted or top-dose-only effect, or another doubt; inactive = no such curve, though single readings can be large or run the other way. Potencies of inconclusive entries are doubtful fits and often do not repeat.
Experiment: Primary qHTS for delayed death inhibitors of the malarial parasite plastid, 96 hour incubation
Details: P. falciparum luciferase reporter growth; series mostly up to 28.7 µM; activity change, negative = inhibition: at the top concentration
Method in brief: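 Infected RBCs, 2% Hct / 0.05% parasitemia final; luciferase-reporter P. falciparum; cpd 96 h, 37 C, 5% CO2; luciferase detection reagent; luminescence.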
% is scaled to controls: 0 for no effect and ±100 for the full control effect; potency is read from the fitted curve at half-maximal effect.

Compound	Potency	activity change, negative = inhibition
O=C(Cn1nc(Cc2cccnc2)c2ccccc2c1=O)Nc1ccc2c(c1)OCO2	inconclusive: 14.7 µM [inhibitor, partial curve, poor fit]	
O=C1CN(C(=O)COC(=O)c2cccnc2Cl)c2ccccc2N1		inactive: 9.9%
COc1ccc(CNC(=O)C2CCCN(c3ncnc4c3nc3n4CCCCC3)C2)cc1 (stereo unspecified)	inconclusive: 18.5 µM [inhibitor, single point]	
CCCC[C@H](CN(N=O)[C@@H](Cc1ccccc1)CN(C)N=O)N(CCc1ccccc1)N=O	inconclusive: 18.5 µM [inhibitor, single point]	
N#CCC(=O)N/N=C/c1c(-c2ccccc2)n(-c2ccccc2)c2ccccc12	inconclusive: 2.08 µM [inhibitor, partial curve, poor fit]	
COc1ccccc1NS(=O)(=O)c1cc(NC(=O)c2cccs2)ccc1N1CCCCC1	active: 3.7 µM	
COc1ccc(Cn2c(-c3ccc(C)cc3)nc3c(c(=O)c4ccccc4n3C)c2=O)cc1	inconclusive: 3.7 µM [inhibitor, single point]	
CN1CCc2ccccc2C1C1CCNCC1 (stereo unspecified)	inconclusive: 1.85 µM [inhibitor, single point]	
COc1cc(SC)ccc1C(=O)Nc1ccc(C)cc1	inconclusive: 5.22 µM [inhibitor, partial curve, poor fit]	
O=C(N/N=C/c1cccnc1)c1cc(-c2ccccc2OCc2ccccc2)n[nH]1	inconclusive: 18.5 µM [inhibitor, single point]	
CN1CCCN=C1COC(=O)C(O)(c1ccccc1)C1CCCCC1 (stereo unspecified)	inconclusive: 19 µM [inhibitor, single point] and inconclusive: 14.7 µM [inhibitor, partial curve, poor fit]	
CCN(c1ccccc1)S(=O)(=O)c1ccc2c(c1)CC(C)N2C(=O)C1CC1 (stereo unspecified)	active: 4.15 µM	
COc1cc2c(cc1OC)CC1(CCCCC1)N=C2	inconclusive: 16.5 µM [inhibitor, single point]	
O=S(=O)(c1ccccc1)N1CCC2(CC1)CO2	inconclusive: 10.4 µM [inhibitor, partial curve, poor fit]	
Cc1cc(C)c(C)c(S(=O)(=O)Nc2cccc(-n3cnnn3)c2)c1C	inconclusive: 10.4 µM [inhibitor, single point]	
Cc1ccc(S(=O)(=O)N2CCOCC2)cc1NC(=O)CN1CCN(c2ccc(O)cc2)CC1	inconclusive: 4.15 µM [inhibitor, partial curve]	
Cc1nc(SCC(=O)c2c(C)[nH]c3ccccc23)c2c(=O)n(C)c(=O)n(CC(C)C)c2n1	inconclusive: 18.5 µM [inhibitor, single point]	
COc1ccc(NS(=O)(=O)c2ccc3oc(=O)ccc3c2)cc1	inconclusive: 18.5 µM [inhibitor, single point]	
COC(CNC(=O)CNC(=S)N(Cc1ccccc1)Cc1cccnc1)OC		inactive: 28.3%
COc1cccc(CNCC(O)(c2ccc(Cl)cc2)c2ccc(Cl)cc2)c1	active: 1.31 µM	
O=C(NCCCN=C1NS(=O)(=O)c2ccccc21)c1ccco1	inconclusive: 10.4 µM [inhibitor, single point]	

A section of the results above, for reference:
Compound	Potency	activity change, negative = inhibition
COc1ccc(Cn2c(-c3ccc(C)cc3)nc3c(c(=O)c4ccccc4n3C)c2=O)cc1	inconclusive: 3.7 µM [inhibitor, single point]	
CN1CCc2ccccc2C1C1CCNCC1 (stereo unspecified)	inconclusive: 1.85 µM [inhibitor, single point]	
COc1cc(SC)ccc1C(=O)Nc1ccc(C)cc1	inconclusive: 5.22 µM [inhibitor, partial curve, poor fit]	
O=C(N/N=C/c1cccnc1)c1cc(-c2ccccc2OCc2ccccc2)n[nH]1	inconclusive: 18.5 µM [inhibitor, single point]	
CN1CCCN=C1COC(=O)C(O)(c1ccccc1)C1CCCCC1 (stereo unspecified)	inconclusive: 19 µM [inhibitor, single point] and inconclusive: 14.7 µM [inhibitor, partial curve, poor fit]	
CCN(c1ccccc1)S(=O)(=O)c1ccc2c(c1)CC(C)N2C(=O)C1CC1 (stereo unspecified)	active: 4.15 µM	
COc1cc2c(cc1OC)CC1(CCCCC1)N=C2	inconclusive: 16.5 µM [inhibitor, single point]	
O=S(=O)(c1ccccc1)N1CCC2(CC1)CO2	inconclusive: 10.4 µM [inhibitor, partial curve, poor fit]	
Cc1cc(C)c(C)c(S(=O)(=O)Nc2cccc(-n3cnnn3)c2)c1C	inconclusive: 10.4 µM [inhibitor, single point]	
Cc1ccc(S(=O)(=O)N2CCOCC2)cc1NC(=O)CN1CCN(c2ccc(O)cc2)CC1	inconclusive: 4.15 µM [inhibitor, partial curve]	

Remaining list, next part.

Compound	Potency	activity change, negative = inhibition
O=C(CCN1CCCCC1)Nc1cccc(Br)c1	inconclusive: 18.5 µM [inhibitor, single point]	
Cc1ccc(OCCN2C(=O)C(=O)c3cccc(C)c32)cc1		inactive: -0.553%
N#Cc1ccccc1S(=O)(=O)N1CCN(C(=O)Cc2coc3cc(O)ccc23)CC1	inconclusive: 18.5 µM [inhibitor, single point]	
C#CC1(OC(=O)c2ccccc2)CC(C)N(C)CC1C (stereo unspecified)	inconclusive: 11.7 µM [inhibitor, single point]	
Cc1oc(-c2ccccc2)nc1Cn1cccc1C1=NC(c2ccccc2)CO1 (stereo unspecified)	active: 5.22 µM	
O=C(NCc1ccco1)c1cc(C(=O)C2CCCCC2)c[nH]1	inconclusive: 0.0329 µM [inhibitor, full curve, poor fit]	
COc1ccc(C(=O)/C=C/c2ccc(OC)c(COc3ccccc3F)c2)cc1	inconclusive: 1.47 µM [inhibitor, partial curve, poor fit]	
O=C(NCc1cccc(F)c1)C1CCC(=O)N(CCCN2CCOCC2)C1 (stereo unspecified)	inconclusive: 11.7 µM [inhibitor, partial curve, poor fit]	
CCCCn1c(NC(=S)Nc2ccccc2)nc2ccccc21	inconclusive: 18.5 µM [inhibitor, single point]	
COc1ccc(Br)cc1CN(C)C(=O)Cc1ccc(OC)c(S(=O)(=O)N2CCOCC2)c1	active: 6.57 µM	
C/C(CC(=O)Nc1ccc(C)cc1C)=N\NC(=O)C(C)C	inconclusive: 11.7 µM [inhibitor, partial curve]	
CCc1ccc(NC(=O)c2ccc(-n3cncn3)c([N+](=O)[O-])c2)cc1	inconclusive: 9.28 µM [inhibitor, single point]	
CC1(CCC#N)N=C(SCCC#N)N(c2ccccc2)C1=O (stereo unspecified)	inconclusive: 0.0037 µM [inhibitor, full curve, poor fit]	
COC(=O)c1ccc(/C=C2\N=C(SC)SC2=O)cc1		inactive: -0.476%
CC1(C)CC(=O)C(C(c2ccc(F)cc2)C2C(=O)CC(C)(C)CC2=O)C(=O)C1	inconclusive: 10.4 µM [inhibitor, single point]	
C/C(=N\NC(=O)NC1CCCCC1)c1ccc(Cl)s1	inconclusive: 1.47 µM [inhibitor, full curve, poor fit]	
N#Cc1c(-c2ccco2)ccn(Cc2cccc(F)c2)c1=O	inconclusive: 6.57 µM [inhibitor, partial curve]	
CC(C)NCCCOc1ccc(C(C)(C)c2ccccc2)cc1	inconclusive: 18.5 µM [inhibitor, single point]	
CCc1ccc(-c2cc(C(=O)Nc3c(C)n(C)n(-c4ccccc4)c3=O)c3ccccc3n2)s1	inconclusive: 14.7 µM [inhibitor, partial curve, poor fit]	
COc1ccccc1/C=C/C(=O)c1ccc(Cl)cc1	inconclusive: 1.31 µM [inhibitor, full curve, poor fit]	
